Among the data in patent US20220363719A1 (Palatin Technologies, Inc., priority 2020, published 2022) are isolated mass and isolated yield values, retold here.

The series can be described thus: general procedure: Fmoc solid-phase peptide synthesis; 2-chlorotrityl chloride resin; EDC/HOAt (cyclisation). Particulars: whole synthesis, scale 1.0 mmol, side-chain lactam ring, sequence written open.

“Ac-Nle-Dab-His-D-Phe(4-F)-Arg-Trp-NH—(CH2)4—COOH” returned an isolated mass of 73 mg and an isolated yield of 6%.
